# Test results: the supplement of paper PMC7666118
# Sequences of proteins named here, by UniProt entry; tags and fusion partners are left off. A change or cut given only in a name is not applied to a line headed by its entry.
# UniProt Q14699: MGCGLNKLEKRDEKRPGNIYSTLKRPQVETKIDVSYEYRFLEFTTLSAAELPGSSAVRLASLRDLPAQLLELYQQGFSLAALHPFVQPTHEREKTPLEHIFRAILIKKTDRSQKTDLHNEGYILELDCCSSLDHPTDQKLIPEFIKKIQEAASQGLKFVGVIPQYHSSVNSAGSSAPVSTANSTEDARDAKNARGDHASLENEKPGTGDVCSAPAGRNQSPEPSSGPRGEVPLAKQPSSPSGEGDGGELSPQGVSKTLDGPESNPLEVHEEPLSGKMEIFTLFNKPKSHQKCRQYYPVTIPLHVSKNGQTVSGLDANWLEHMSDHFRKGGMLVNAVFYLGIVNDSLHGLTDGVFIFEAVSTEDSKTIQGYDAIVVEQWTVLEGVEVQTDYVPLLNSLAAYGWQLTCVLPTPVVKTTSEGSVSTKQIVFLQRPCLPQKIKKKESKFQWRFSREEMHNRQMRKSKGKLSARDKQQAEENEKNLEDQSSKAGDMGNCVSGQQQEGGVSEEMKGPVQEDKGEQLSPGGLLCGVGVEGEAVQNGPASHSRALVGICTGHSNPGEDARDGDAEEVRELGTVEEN
# UniProt Q8NC42: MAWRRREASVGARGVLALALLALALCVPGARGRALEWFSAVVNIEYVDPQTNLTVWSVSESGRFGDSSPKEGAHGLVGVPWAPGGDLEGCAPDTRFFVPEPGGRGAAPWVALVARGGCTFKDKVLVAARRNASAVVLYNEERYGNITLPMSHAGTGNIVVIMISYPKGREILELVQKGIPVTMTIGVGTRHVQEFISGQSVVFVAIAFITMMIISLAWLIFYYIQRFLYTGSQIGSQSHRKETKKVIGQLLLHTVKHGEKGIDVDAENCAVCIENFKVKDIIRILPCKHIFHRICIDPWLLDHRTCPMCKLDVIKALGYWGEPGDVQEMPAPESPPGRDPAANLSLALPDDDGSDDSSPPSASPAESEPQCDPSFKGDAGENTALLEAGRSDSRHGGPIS
# UniProt Q96T37: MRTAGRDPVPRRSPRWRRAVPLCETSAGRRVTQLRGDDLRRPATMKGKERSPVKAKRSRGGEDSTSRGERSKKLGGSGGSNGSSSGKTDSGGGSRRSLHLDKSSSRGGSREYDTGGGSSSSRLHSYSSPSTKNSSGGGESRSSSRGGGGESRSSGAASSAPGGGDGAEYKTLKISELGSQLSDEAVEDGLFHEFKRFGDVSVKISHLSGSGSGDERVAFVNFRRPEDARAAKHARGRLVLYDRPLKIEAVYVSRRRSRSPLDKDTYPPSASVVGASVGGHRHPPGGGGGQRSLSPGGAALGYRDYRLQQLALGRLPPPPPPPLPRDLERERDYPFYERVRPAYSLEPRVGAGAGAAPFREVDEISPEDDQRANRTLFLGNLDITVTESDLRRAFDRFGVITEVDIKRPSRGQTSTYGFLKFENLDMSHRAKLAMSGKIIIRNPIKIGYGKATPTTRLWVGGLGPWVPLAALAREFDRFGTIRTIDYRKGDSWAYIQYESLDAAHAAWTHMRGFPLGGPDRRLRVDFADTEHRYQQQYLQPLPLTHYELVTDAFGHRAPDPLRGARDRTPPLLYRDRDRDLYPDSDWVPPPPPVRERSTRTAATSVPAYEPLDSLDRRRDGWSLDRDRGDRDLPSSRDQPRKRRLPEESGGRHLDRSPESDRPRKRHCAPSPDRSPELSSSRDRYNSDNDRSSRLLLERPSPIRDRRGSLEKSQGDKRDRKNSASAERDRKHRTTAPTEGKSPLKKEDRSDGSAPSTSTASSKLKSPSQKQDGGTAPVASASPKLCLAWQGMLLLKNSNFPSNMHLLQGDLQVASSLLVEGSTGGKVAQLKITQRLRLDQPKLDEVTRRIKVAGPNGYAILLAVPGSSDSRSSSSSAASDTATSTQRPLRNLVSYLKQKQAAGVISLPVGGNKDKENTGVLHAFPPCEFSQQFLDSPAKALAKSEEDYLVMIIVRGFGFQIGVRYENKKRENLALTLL
# UniProt Q04864: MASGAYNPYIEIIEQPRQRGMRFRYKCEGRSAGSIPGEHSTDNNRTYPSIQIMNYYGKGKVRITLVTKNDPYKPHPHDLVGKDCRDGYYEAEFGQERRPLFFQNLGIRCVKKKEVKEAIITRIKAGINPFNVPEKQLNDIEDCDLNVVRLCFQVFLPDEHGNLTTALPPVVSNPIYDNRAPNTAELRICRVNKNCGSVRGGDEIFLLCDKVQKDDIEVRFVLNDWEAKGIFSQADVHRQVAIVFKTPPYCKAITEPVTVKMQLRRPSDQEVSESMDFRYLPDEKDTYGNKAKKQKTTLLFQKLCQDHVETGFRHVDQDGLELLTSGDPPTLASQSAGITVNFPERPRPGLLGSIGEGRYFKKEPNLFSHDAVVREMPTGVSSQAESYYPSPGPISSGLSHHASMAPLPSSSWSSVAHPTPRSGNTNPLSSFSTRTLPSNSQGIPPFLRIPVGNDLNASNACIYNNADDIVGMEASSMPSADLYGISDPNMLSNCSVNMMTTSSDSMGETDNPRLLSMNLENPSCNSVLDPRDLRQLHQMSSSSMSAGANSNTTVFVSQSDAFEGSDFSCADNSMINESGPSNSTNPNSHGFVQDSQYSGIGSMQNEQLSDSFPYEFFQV
# UniProt Q8IYW5, whole entry: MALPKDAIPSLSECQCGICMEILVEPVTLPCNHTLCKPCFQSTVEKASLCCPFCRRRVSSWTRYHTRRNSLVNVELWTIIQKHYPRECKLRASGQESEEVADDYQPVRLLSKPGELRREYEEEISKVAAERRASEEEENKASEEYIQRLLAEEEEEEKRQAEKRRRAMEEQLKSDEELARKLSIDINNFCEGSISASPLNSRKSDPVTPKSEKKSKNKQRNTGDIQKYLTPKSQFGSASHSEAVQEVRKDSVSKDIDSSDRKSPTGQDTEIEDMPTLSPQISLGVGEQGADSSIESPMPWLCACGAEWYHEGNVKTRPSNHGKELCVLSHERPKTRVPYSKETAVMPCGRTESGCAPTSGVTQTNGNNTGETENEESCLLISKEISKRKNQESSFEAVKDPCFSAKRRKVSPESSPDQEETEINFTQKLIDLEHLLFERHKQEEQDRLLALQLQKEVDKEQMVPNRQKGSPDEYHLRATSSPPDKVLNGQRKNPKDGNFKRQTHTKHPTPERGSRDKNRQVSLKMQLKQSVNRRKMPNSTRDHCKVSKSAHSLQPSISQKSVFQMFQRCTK
# UniProt O43665: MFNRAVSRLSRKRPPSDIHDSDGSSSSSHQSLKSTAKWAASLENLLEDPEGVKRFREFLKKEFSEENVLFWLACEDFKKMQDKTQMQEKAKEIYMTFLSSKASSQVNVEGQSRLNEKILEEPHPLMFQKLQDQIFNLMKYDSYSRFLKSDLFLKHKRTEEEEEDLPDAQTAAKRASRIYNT
# UniProt P61586, whole entry: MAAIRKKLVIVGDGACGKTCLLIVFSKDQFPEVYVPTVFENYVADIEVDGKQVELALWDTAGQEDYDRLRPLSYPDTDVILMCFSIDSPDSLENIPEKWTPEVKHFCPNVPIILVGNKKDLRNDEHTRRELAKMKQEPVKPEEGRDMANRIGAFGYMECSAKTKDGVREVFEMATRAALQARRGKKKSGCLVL
# UniProt Q9BQ04: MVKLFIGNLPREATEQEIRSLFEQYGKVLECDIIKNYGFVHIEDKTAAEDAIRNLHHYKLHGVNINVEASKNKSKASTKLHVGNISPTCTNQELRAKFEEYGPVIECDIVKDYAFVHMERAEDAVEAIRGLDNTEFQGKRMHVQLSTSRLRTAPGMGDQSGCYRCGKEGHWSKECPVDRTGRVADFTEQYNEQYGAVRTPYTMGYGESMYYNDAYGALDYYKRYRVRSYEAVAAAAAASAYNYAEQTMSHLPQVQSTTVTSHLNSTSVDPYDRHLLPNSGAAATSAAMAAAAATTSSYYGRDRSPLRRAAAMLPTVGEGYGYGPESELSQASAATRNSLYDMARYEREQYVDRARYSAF
# UniProt P50749: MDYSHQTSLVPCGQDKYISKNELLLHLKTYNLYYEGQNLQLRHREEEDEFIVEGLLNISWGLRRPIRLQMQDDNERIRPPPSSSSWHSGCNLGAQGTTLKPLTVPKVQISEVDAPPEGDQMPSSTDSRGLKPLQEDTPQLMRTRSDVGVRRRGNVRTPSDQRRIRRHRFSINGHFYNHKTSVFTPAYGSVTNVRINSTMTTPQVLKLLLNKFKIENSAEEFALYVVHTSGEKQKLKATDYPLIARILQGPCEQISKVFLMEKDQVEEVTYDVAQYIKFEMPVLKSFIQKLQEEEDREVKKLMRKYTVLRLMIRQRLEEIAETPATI
# This is one part of the list.
# Compound: COc1ccc(Cn2ccc3cc(C)c(C(=O)NO)cc32)cc1
# Assay: dose-dependent thermal stabilisation call (2D-TPP, DLPTP, 10% FDR) (binary (1 = stabilised)); higher = stabilised by the compound
# Conditions: system: HL-60 intact cells; concentration range 0.04-10 µM
# Protocol: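 2D thermal proteome profiling in intact HL-60 cells treated with BRD-3811 (0, 0.04, 0.29, 2, 10 uM) for 90 min at 37 C, then heated 3 min at one of 12 temperatures (42-63.9 C). Soluble protein was quantified by TMT10 MS. The value is the DLPTP call of the paper: dose-dependent thermal stabilisation over all temperatures at 10% FDR (F-test of a dose-response against a flat model); one experiment, one call per tested protein.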
row,Target,dose-dependent thermal stabilisation call
1,RFTN1 (UniProt Q14699),inactive: 0
2,RNF149 (UniProt Q8NC42),inactive: 0
3,RBM15 (UniProt Q96T37),inactive: 0
4,REL (UniProt Q04864),inactive: 0
5,RNF168 (UniProt Q8IYW5),inactive: 0
6,RGS10 (UniProt O43665),inactive: 0
7,RHOA (UniProt P61586),inactive: 0
8,RBM4B (UniProt Q9BQ04),inactive: 0
9,RASSF2 (UniProt P50749),inactive: 0
